# From the supplement of paper PMC8166895
# Counter-ions that a name gives are not always drawn. Some of the results follow. Most entries show no effect beyond the scatter of the controls.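 Melting temperature was read by differential scanning fluorimetry in a single-replicate pilot screen of a library of approved drugs and clinical or known-target compounds. Compounds raising the melting point by at least 2 °C were the top stabilizing hits, and negative shifts mean destabilization.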
# Tested on: SARS-CoV-2 main protease (Mpro, nsp5)
# Experiment: thermal shift ΔTm of Mpro relative to plate average Tm; higher = stronger thermal stabilization of Mpro (binding)
# Settings: 10 µM; protein concentration 1 µM
row,Structure (SMILES),thermal shift ΔTm of Mpro [°C]
1,O=C(/C=C/c1ccc(O)c(O)c1/C=C/c1ccc(O)c(O)c1)O[C@H](Cc1ccc(O)c(O)c1)C(=O)O [Salvianolic acid A],-0.00928
2,CN(C)[C@@H](CCOc1cccc2ccccc12)c1ccccc1 [Dapoxetine HCl],0.0445
3,CCCC(CCC)C(=O)O [Divalproex Sodium],-0.0936
4,CCCC(CCC)C(=O)O [Valproic acid sodium salt (Sodium valproate)],-0.0678
5,CN(C)CCCC1(c2ccc(F)cc2)OCc2cc(C#N)ccc21 (stereo not drawn) [Citalopram HBr],0.00563
6,Cc1onc(-c2ccccc2)c1C(=O)N[C@@H]1C(=O)N2[C@@H]1SC(C)(C)[C@@H]2C(=O)O [Oxacillin sodium],0.129
7,COc1ccccc1N1CCN(CCN2C(=O)CC3(CCCC3)CC2=O)CC1,-0.142
8,O=C(Nc1ccc(Cl)cc1)c1cc(Br)ccc1O [Salifungin],0.0827
9,CC(C)CCNc1ncccc1C(=O)N1CCN(Cc2ccccc2)CC1,-0.0622
10,OCC(O)CN1CCN(c2ccccc2)CC1 (stereo not drawn) [Dropropizine],-0.15
11,N=C1S/C(=C\c2ccc(-c3ccc4c(c3)C(=O)NC4=O)o2)C(=O)N1c1ccc(Br)cc1 [Bioymifi],0.242
12,CC1=C(CSC(=S)N2CCCCC2)C(=O)c2ccccc2C1=O [PKM2 inhibitor],0.0379
13,COc1cc(N)c(Cl)cc1C(=O)NC1CCN(CCCOc2ccc(F)cc2)CC1OC (stereo not drawn) [Cisapride],0.129
14,CN(C)CCC(c1ccc(Cl)cc1)c1ccccn1 (stereo not drawn) [Chlorpheniramine Maleate],0.0445
15,COc1cccc(OCCCN)c1-c1cc(Nc2cnc(C#N)cn2)n[nH]1 [Prexasertib dihydrochloride],-0.11
16,Fc1ccc(-n2cc(CCCCN3CCC4(CC3)OCc3ccccc34)c3ccccc32)cc1 [Siramesine hydrochloride],0.022
17,CC(C)[C@H](NC(=O)OCC1c2ccccc2-c2ccccc21)C(=O)N[C@@H](C)C(=O)Nc1ccc(CO)cc1,-0.0827
18,CC(C)(C)c1cc(/C=C(\C#N)C(N)=S)cc(C(C)(C)C)c1O [Tyrphostin AG 879],0.963
19,CCC(=O)NCC[C@@H]1CCc2ccc3c(c21)CCO3 [Ramelteon],0.192
20,COC1=CC(=O)C[C@@H](C)[C@]12Oc1c(Cl)c(OC)cc(OC)c1C2=O [Griseofulvin],0.152
21,O=S(=O)(NCCNC/C=C/c1ccc(Br)cc1)c1cccc2cnccc12,-0.179
22,O[C@@H](COc1cccc2ncccc12)CN1CCN(C2c3ccccc3[C@@H]3[C@H](c4ccccc42)C3(F)F)CC1 (stereo partly drawn),-0.0326
23,C[S+](CC[C@H](N)C(=O)O)C[C@H]1O[C@@H](n2cnc3c(N)ncnc32)[C@H](O)[C@@H]1O (stereo partly drawn) [S-(5'-Adenosyl)-L-methionine tosylate],0.28
24,NS(=O)(=O)NCCNc1nonc1/C(=N/O)Nc1ccc(F)c(Br)c1,0.155
25,COc1ccc(-c2coc3cc(O)cc(O)c3c2=O)cc1 [Biochanin A],0.283
26,COC(=O)Nc1nc2cc(C(=O)c3ccc(F)cc3)ccc2[nH]1 [Flubendazole],0.0164

# Retrieved one by one from the list above, 5 records:
row,Structure (SMILES),thermal shift ΔTm of Mpro [°C]
9,CC(C)CCNc1ncccc1C(=O)N1CCN(Cc2ccccc2)CC1,-0.0622
19,CCC(=O)NCC[C@@H]1CCc2ccc3c(c21)CCO3 [Ramelteon],0.192
15,COc1cccc(OCCCN)c1-c1cc(Nc2cnc(C#N)cn2)n[nH]1 [Prexasertib dihydrochloride],-0.11
3,CCCC(CCC)C(=O)O [Divalproex Sodium],-0.0936
23,C[S+](CC[C@H](N)C(=O)O)C[C@H]1O[C@@H](n2cnc3c(N)ncnc32)[C@H](O)[C@@H]1O (stereo partly drawn) [S-(5'-Adenosyl)-L-methionine tosylate],0.28

# The results go on:

row,Structure (SMILES),thermal shift ΔTm of Mpro [°C]
1,Cc1ccc(-n2[nH]c(C)c(N=Nc3cccc(-c4cccc(C(=O)O)c4)c3O)c2=O)cc1C [Eltrombopag Olamine],-0.0249
2,Cc1ccc(-n2[nH]c(C)c(N=Nc3cccc(-c4cccc(C(=O)O)c4)c3O)c2=O)cc1C [Eltrombopag],0.0233
3,COc1cc2ncnc(Nc3cccc(O)c3)c2cc1OC,0.00426
4,Cc1c(-c2ccc3c(c2)CN(C2CC2)C3=O)nnn1-c1cccnc1F,-0.107
5,O=C(O[C@@H]1C[C@@H]2C[C@H]3C[C@H](C1)N2CC3=O)c1c[nH]c2ccccc12 [Dolasetron],0.0564
6,COc1ccc2cc1Oc1ccc(cc1)C[C@H]1c3c(cc4c(c3Oc3cc5c(cc3OC)CCN(C)[C@@H]5C2)OCO4)CCN1C [Cepharanthine],-0.258
7,Nc1ccc(F)cc1NC(=O)c1ccc(CNC(=O)/C=C/c2cccnc2)cc1 [Chidamide],0.0325
8,NC1=N[C@@]2(c3cc(NC(=O)c4ccc(F)cn4)ccc3F)COC[C@H]2CS1,-0.0366
9,Cn1c(=O)c2[nH]c(Br)nc2n(C)c1=O [Pamabrom],0.224
10,COc1ccc(COc2cc3oc(=O)c4cc(C(C)O)ccc4c3cc2OC)cc1 (stereo not drawn) [Palomid 529 (P529)],-0.137
11,Cc1cc(-c2ccccc2)nnc1C(=O)N1CCN(c2ncccn2)CC1,-0.0889
12,CCS(=O)(=O)N1CCC([C@@H](C)n2c(C)c(C(=O)NCc3c(OC)cc(C)[nH]c3=O)c3ccccc32)CC1,-0.0594
13,Fc1ccc(CNc2ncnc3ccc(F)cc23)cc1 [Spautin-1],0.182
14,O=S(=O)(N=Cc1c(O)ccc2ccccc12)c1cccs1,-0.249
15,"CO[C@H]1C[C@@H]2CC[C@@H](C)[C@@](O)(O2)C(=O)C(=O)N2CCCC[C@H]2C(=O)O[C@H]([C@H](C)C[C@@H]2CC[C@@H](OP(C)(C)=O)[C@H](OC)C2)CC(=O)[C@H](C)/C=C(\C)[C@@H](O)[C@@H](OC)C(=O)[C@H](C)C[C@H](C)/C=C/C=C/C=C/1C [Ridaforolimus (Deforolimus, MK-8669)]",-0.368
16,c1ccc([C@@H]2C[C@H]2NC2CCNCC2)cc1,-0.00344
17,Cc1c(OCC(F)(F)F)ccnc1C[S+]([O-])c1nc2ccccc2[nH]1 (stereo not drawn) [Lansoprazole],0.491
18,O=C(O)c1ccc(S(=O)(=O)N(Cc2ccc(OC(F)(F)F)cc2)c2ncc(C(F)(F)F)cc2Cl)cc1,-0.115
19,CCN1CCN(c2cc(-c3ccc(F)cc3)c3c(n2)CCCCCC3)CC1 [Blonanserin],-0.276
20,CC=C(C)C(=O)O[C@H]1[C@H](OC(C)=O)[C@@]2(CO)C(CC1(C)C)C1=CCC3[C@@]4(C)CC[C@H](O[C@@H]5O[C@H](C(=O)O)[C@@H](O[C@@H]6O[C@H](CO)[C@@H](O)[C@H](O)[C@H]6O)[C@H](O)[C@H]5O[C@@H]5O[C@H](CO)[C@@H](O)[C@H](O)[C@H]5O)[C@](C)(CO)C4CC[C@@]3(C)[C@]1(C)C[C@H]2O (stereo partly drawn) [Sapogenins Glycosides],-0.0627
21,CC[C@@H]1C(=O)N(C)c2cnc(Nc3ccc(C(=O)NC4CCN(C)CC4)cc3OC)nc2N1C1CCCC1,0.00871
22,O=C1CCc2c(ccc3ccccc23)O1 [Splitomicin],-0.23
23,O=C(O)Cc1cccnc1 [3-Pyridylacetic acid hydrochloride],0.236
24,S=P(N1CC1)(N1CC1)N1CC1 [Triethylenethiophosphoramide],0.177
25,c1cnc(NCc2ccc(CNc3ncccn3)cc2)nc1,0.221
26,CNC(=O)CN1CCC(Oc2cc3c(Nc4cccc(Cl)c4F)ncnc3cc2OC)CC1 [AZD8931 (Sapitinib)],-0.0649

row,Structure (SMILES),thermal shift ΔTm of Mpro [°C]
1,COc1ccc2cc(Br)ccc2c1 [2-Bromo-6-methoxynaphthalene],-0.167
2,CCN1CCCC1CNC(=O)c1cc(S(=O)(=O)CC)c(N)cc1OC (stereo not drawn) [Amisulpride],0.171
3,Nc1nc(N)nc(-c2cc(Cl)ccc2Cl)n1 [Irsogladine],0.0948
4,O=C(O)CCn1c(O)c(C2=c3cc(Cl)ccc3=NC2=O)sc1=S,0.0874
5,CCCS(=O)(=O)Nc1ccc(F)c(C(=O)c2c[nH]c3ncc(Cl)cc23)c1F,-0.0596
6,O=C(Nc1cccc(Cl)c1)Nc1ncc(CCNc2ncnc3ccsc23)s1 [SNS-314 Mesylate],0.178
7,Nc1n[nH]c2cc(-c3ccc(=O)n(Cc4cccc(Cl)c4)c3)ccc12,0.245
8,Nc1ncnc2c1c(-c1cccc(OCc3ccccc3)c1)cn2C1CC(CN2CCCC2)C1 (stereo not drawn),0.149
9,Clc1ccc2c(NCCNc3ccnc4cc(Cl)ccc34)ccnc2c1,0.0093
10,Cc1ccc(NC(=O)Nc2cc(-c3ccccc3-c3nn[nH]n3)ccc2N(CC(C)C)CC(C)C)cc1,-0.635
11,CN(C)c1ccc(C2Nc3ccc4ccccc4c3C3=C2C(=O)CC(C)(C)C3)cc1Br (stereo not drawn) [Glutaminase C-IN-1],-0.0692
12,CCc1c(C(=O)NCCc2ccc(N3CCCCC3)cc2)[nH]c2ccc(Cl)cc12,0.0884
13,c1ccc(Cc2nc3ccccc3[nH]2)cc1 [Bendazol],0.267
14,Nc1cccc(-c2cc3c(Oc4cccc(O)c4)ncnc3[nH]2)c1,0.044
15,CC(C)[C@H]1CC[C@H](C(=O)N[C@H](Cc2ccccc2)C(=O)O)CC1 [Nateglinide],-0.0887
16,COC(=O)/C(=C1/OC(=O)C(c2ccccc2)=C1O)c1ccccc1 [Vulpinic Acid],0.192
17,COc1c(O)cc2c(c1O)[C@@H]1O[C@H](CO)[C@@H](O)[C@H](O)[C@H]1OC2=O [Bergenin],0.317
18,COc1ccc(CCCOC(Cn2ccnc2)c2ccc(OC)cc2)cc1 (stereo not drawn),0.0489
19,COc1cc(-c2nc3ccccc3s2)ccc1O,1.26
20,COc1ccc(C(C)=O)c(O)c1 [Paeonol],-0.111
21,COc1ccc(-n2nc(C(N)=O)c3c2C(=O)N(c2ccc(N4CCCCC4=O)cc2)CC3)cc1 [Apixaban],-0.0301
22,CCC(CC)[C@H](NC(C)=O)[C@@H]1[C@H](O)[C@@H](C(=O)O)C[C@H]1NC(=N)N [Peramivir Trihydrate],0.00417
23,CC(C)c1nc(CN(C)C(=O)N[C@H](C(=O)N[C@@H](Cc2ccccc2)C[C@H](O)[C@H](Cc2ccccc2)NC(=O)OCc2cncs2)C(C)C)cs1 [Ritonavir],-0.159
24,CC1C=CC=CCCC=CC=CC=CC=CC(OC2OC(C)C(O)C(N)C2O)CC2OC(O)(CC(O)C(O)CCC(O)CC(O)CC(O)CC(=O)OC(C)C(C)C1O)CC(O)C2C(=O)O (stereo not drawn) [Nystatin (Fungicidin)],0.0162
25,COc1ccccc1OCCNCC(O)COc1cccc2[nH]c3ccccc3c12 (stereo not drawn) [Carvedilol phosphate],-0.144
26,COc1ccccc1OCCNCC(O)COc1cccc2[nH]c3ccccc3c12 (stereo not drawn) [Carvedilol],-0.0999
